Experimental data taken from paper PMC6677748.
No constants are given. Whether binding was seen depends on the method and setting. For some assays here: Binding seen in cells or lysates may run through a third protein. Some binding calls cover weakened binding; strength is not graded here.

Sequences of proteins named here, by UniProt entry; tags and fusion partners are left off.
UniProt O06874: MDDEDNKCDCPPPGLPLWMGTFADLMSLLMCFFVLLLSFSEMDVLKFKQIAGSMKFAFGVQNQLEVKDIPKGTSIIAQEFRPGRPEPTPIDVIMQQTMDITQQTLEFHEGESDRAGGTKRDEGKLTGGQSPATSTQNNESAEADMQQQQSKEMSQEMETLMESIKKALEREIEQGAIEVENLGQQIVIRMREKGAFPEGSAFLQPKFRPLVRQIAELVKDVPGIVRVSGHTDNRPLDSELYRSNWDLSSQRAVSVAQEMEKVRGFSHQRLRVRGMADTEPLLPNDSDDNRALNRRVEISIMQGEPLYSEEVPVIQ

How the values were obtained:
[1] = molecular target: PomB with His6-tag at the C-terminus (wild type), subunit B of the Na+-driven flagellar stator complex of Vibrio alginolyticus (V. alginolyticus) (UniProt O06874); assay: pull-down; PomA and PomB-His6 co-expressed in E. coli; membrane fraction solubilised with 0.5% DMNG; PomB-His6 held on Ni-NTA agarose at room temperature in 50 mM sodium phosphate pH 8.0, 200 mM NaCl, 10 mM imidazole, 0.05% DMNG; eluted with 400 mM imidazole; Western blot with anti-PomA and anti-PomB antibodies
[2] = molecular target: PomB with His6-tag at the C-terminus (wild type), subunit B of the Na+-driven flagellar stator complex of Vibrio alginolyticus (V. alginolyticus) (UniProt O06874); assay: co-purification (metal affinity, then SEC); PomA and PomB-His6 overexpressed together in E. coli; membrane fraction solubilised with 0.5% DMNG; TALON resin by the His6 tag of PomB, eluted with 200 mM imidazole, then Enrich SEC 650 column in DMNG; peak fractions checked by SDS-PAGE; sample used for ATR-FTIR

PomA (wild type), subunit A of the Na+-driven flagellar stator complex of Vibrio alginolyticus (from UniProt O06873 1-253)
binding [1]: binds | binding [2]: binds
